In data set [1] the target is Voltage-gated inwardly rectifying potassium channel KCNH2 (Homo sapiens, UniProt Q12809).
A short description of data set [2]: physchem. The note with it: buffer, pH 7.4.
The nature of data set [3]: physchem. Conditions: buffer, pH 7.4. This is another data set of the same source.

Amino acid sequences for entries named in this document (tags omitted). A change or cut given only in a name is not applied to a line headed by its entry.
UniProt Q12809: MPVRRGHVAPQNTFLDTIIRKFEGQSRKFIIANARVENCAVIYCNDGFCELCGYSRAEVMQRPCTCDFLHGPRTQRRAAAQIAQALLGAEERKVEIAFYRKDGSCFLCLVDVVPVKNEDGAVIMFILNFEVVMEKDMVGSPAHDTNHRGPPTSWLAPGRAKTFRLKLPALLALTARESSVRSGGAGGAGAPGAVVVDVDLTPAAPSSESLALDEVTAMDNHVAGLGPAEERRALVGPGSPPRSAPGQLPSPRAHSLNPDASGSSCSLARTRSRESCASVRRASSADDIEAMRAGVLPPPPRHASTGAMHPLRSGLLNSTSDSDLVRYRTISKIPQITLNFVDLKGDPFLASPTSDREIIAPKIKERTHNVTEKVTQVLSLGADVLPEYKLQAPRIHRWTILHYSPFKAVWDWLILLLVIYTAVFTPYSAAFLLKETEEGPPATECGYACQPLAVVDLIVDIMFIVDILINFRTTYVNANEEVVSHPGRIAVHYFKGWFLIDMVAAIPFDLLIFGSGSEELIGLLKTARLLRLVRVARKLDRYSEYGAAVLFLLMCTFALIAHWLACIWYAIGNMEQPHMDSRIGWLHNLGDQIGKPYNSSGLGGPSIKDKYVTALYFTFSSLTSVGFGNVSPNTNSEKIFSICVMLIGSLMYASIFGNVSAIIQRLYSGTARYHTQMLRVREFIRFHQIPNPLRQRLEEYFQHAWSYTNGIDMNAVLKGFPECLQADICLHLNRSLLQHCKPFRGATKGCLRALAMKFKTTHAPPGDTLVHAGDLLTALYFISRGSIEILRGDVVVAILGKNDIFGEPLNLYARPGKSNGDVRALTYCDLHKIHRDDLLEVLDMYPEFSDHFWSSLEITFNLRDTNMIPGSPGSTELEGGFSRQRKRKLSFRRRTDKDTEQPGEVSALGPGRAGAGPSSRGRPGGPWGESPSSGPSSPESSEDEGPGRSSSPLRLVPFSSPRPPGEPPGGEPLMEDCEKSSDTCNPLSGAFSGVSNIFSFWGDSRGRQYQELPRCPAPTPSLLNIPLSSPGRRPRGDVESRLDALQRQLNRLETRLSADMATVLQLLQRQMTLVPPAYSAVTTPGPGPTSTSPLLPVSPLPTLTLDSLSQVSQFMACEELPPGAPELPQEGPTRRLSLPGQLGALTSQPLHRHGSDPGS

Molecules are shown by their SMILES. ≈ marks a conversion by molar mass, not a printed value.

In general, IC50 refers to the concentration at which inhibition is half-maximal. One may read the kinetic solubility as solubility judged after dilution from a stock solution rather than from solid. What is called logD is the decadic logarithm of the distribution of all forms, ionised or not, between an organic phase and buffer at a given pH. A lower logD goes with lower lipophilicity.

For the compound `COc1ccc(NC(=O)N2CCN(c3nc(N)nc4sc(-c5cccnc5)nc34)CC2)cc1`, the midpoint of inhibition in data set [1], the IC50, lay at 2200 nM. In addition, the solubility (kinetic) at 1.5 h in “physchem [2]” was 32 µM (≈ 14.8 µg/mL). The compound also came in with a logD at 1.5 h in the data set “physchem [3]” of 3.06.

For the origin of these results see ChEMBL document CHEMBL4190408 (J Med Chem, 2018).
